# Data as given in patent US20120082676A1 (RESEARCH FOUNDATION OF STATE UNIVERSITY OF NEW YORK, published 2012).
# Chains of the proteins cited; added tags and fusions are not shown. Residues count along the entry.
# UniProt Q07021, residues 74-282: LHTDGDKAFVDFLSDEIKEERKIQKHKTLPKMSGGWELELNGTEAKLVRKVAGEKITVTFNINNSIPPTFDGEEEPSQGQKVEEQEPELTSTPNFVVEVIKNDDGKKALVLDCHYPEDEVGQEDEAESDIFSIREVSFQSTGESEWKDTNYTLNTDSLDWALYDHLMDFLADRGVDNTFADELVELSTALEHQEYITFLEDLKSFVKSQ
# Results are given in words; binding and its absence hold for the method and conditions named. Some entries that bind do so weakly or less than the wild type.
# B1: HKH20 (HK peptide, residues 479-498) (peptide)
# peptide: HKHGHGHGKHKNKGKKNGKH
# B2: HKH-10-1 (HK residues 479-488) (peptide)
# peptide: HKHGHGHGKH
# Legend:
# [1] = molecular target: gC1q-R (receptor for the globular heads of C1q), highly purified recombinant, full-length (human) (UniProt Q07021); experiment: competitive ELISA: HKH20 in solution against coated HKH20 for biotinylated gC1q-R
# [2] = molecular target: gC1q-R (receptor for the globular heads of C1q), highly purified recombinant, full-length (human) (UniProt Q07021); experiment: binding of gC1q-R to peptides, FIG. 5 panel B
# [3] = molecular target: gC1q-R (receptor for the globular heads of C1q), highly purified recombinant, full-length (human) (UniProt Q07021); experiment: competitive ELISA, FIG. 5 panel A: HKH20 at 10 or 50 µg/ml in solution, biotinylated gC1q-R, coated HKH20
# [4] = molecular target: gC1q-R (receptor for the globular heads of C1q), highly purified recombinant, full-length (human) (UniProt Q07021); experiment: binding of gC1q-R to 10-residue overlapping peptides from HKH20
binding [1],binding [2],binding [3],binding [4],Binder
binds,binds,binds,,B1
,binds,,binds,B2
